# Measurements from PubChem BioAssay AID194 (DTP/NCI, 2004).
# The list is a part of this screen's results and no random one: it is rich in T/C values a quarter to a half above the control, in often repeated tests (any T/C) and in doses without a T/C. Other doses and runs of a compound stand elsewhere. T/C is the treated group as % of the vehicle group. Schedule codes are those of the source, taken here to give the interval after Q, in days (D) or hours (H), and the number of doses after X. Some entries give survivors of the animals treated and no T/C: the source holds a T/C of zero for them, seemingly a mark for toxic or unscored doses. Some doses without a T/C left all or most animals alive at the check, yet need not have been tolerated: the source hardly ever lists a survival T/C far under the control, and the zero likely stands for such cases as well. Survivors were counted at the toxicity check, usually on the fifth day, unless a day is given; later deaths do not show. Some doses were run more than once; the values are given in rising order. Where survival is the endpoint, this PubChem deposit counts one and a half times the control or more as active, and values a quarter to a half above the control carry no call in these data; other NCI protocols may use other cut-offs. Some T/C values carry the count of animals alive at the toxicity check (mostly the fifth day); where none is given, no animal had died by that day. Brackets with × say how often a value occurs here.
# Tested on: BDF1 mice, B16 melanoma s.c., survival/tumor T/C
# Experiment: NCI In Vivo Anticancer Drug Screen. Data for tumor model B16 Melanoma (subcutaneous) in B6D2F1 (BDF1) mice
# Experimental: The antitumor activity of compounds was measured in mice bearing transplantable tumors. Survival or tumor size were measured and the results are expressed as the measurement made in the treated group (T) divided by the measurement made in the vehicle treated control group (C). The tumor model used in this assay is B16 Melanoma (subcutaneous) in B6D2F1 (BDF1) mice
# [1] = T/C endpoint: median survival time, dose: 25.0 mg/kg/injection, schedule: Q02DX009 (ip), vehicle: Klucel (hydroxypropylcellulose) (HPC), higher T/C = longer survival
# [2] = T/C endpoint: median survival time, dose: 25.0 mg/kg/injection, schedule: Q01DX009 (ip), vehicle: Klucel (hydroxypropylcellulose) (HPC), higher T/C = longer survival
# [3] = T/C endpoint: median survival time, dose: 50.0 mg/kg/injection, schedule: Q01DX009 (ip), vehicle: Klucel (hydroxypropylcellulose) (HPC), higher T/C = longer survival
# [4] = T/C endpoint: median survival time, dose: 100.0 mg/kg/injection, schedule: Q01DX009 (ip), vehicle: Klucel (hydroxypropylcellulose) (HPC), higher T/C = longer survival
smiles,measurement,setting,value
O=NN(CCF)C(=O)NC1CCCCC1,T/C,"T/C endpoint: median survival time, dose: 2.5 mg/kg/injection, schedule: Q01HX012 (ip), vehicle: Klucel (hydroxypropylcellulose) (HPC), higher T/C = longer survival",134 % of control
same,T/C,"T/C endpoint: median survival time, dose: 3.75 mg/kg/injection, schedule: Q03HX004 (ip), vehicle: Klucel (hydroxypropylcellulose) (HPC), higher T/C = longer survival",126 % of control
same,T/C,"T/C endpoint: median survival time, dose: 8.64 mg/kg/injection, schedule: Q01DX007 (ip), vehicle: Klucel (hydroxypropylcellulose) (HPC), higher T/C = longer survival",129 % of control
same,survivor count,"T/C endpoint: median survival time, dose: 10.0 mg/kg/injection, schedule: Q01HX012 (ip), vehicle: Klucel (hydroxypropylcellulose) (HPC), higher T/C = longer survival",5 of 8
same,T/C,"T/C endpoint: median survival time, dose: 10.5 mg/kg/injection, schedule: Q01DX007 (ip), vehicle: Klucel (hydroxypropylcellulose) (HPC), higher T/C = longer survival",144 % of control
same,survivor count,"T/C endpoint: median survival time, dose: 20.0 mg/kg/injection, schedule: Q01HX012 (ip), vehicle: Klucel (hydroxypropylcellulose) (HPC), higher T/C = longer survival",0 of 8
same,T/C,"T/C endpoint: median survival time, dose: 23.7 mg/kg/injection, schedule: Q01DX001 (ip), vehicle: Klucel (hydroxypropylcellulose) (HPC), evaluated on day 16, higher T/C = longer survival",134 % of control
same,T/C,"T/C endpoint: median survival time, dose: 23.7 mg/kg/injection, schedule: Q01DX001 (ip), vehicle: Klucel (hydroxypropylcellulose) (HPC), evaluated on day 47, higher T/C = longer survival",132 % of control
same,survivor count,"T/C endpoint: median survival time, dose: 24.0 mg/kg/injection, schedule: Q01DX007 (ip), vehicle: Klucel (hydroxypropylcellulose) (HPC), higher T/C = longer survival",5 of 10 on day 55
same,T/C,"T/C endpoint: median survival time, dose: 35.6 mg/kg/injection, schedule: Q01DX001 (ip), vehicle: Klucel (hydroxypropylcellulose) (HPC), evaluated on day 16, higher T/C = longer survival",134 % of control
same,T/C,"T/C endpoint: median survival time, dose: 35.6 mg/kg/injection, schedule: Q01DX001 (ip), vehicle: Klucel (hydroxypropylcellulose) (HPC), evaluated on day 47, higher T/C = longer survival",135 % of control [9 of 10 alive on day 47]
same,survivor count,"T/C endpoint: median survival time, dose: 40.0 mg/kg/injection, schedule: Q02HX006 (ip), vehicle: Klucel (hydroxypropylcellulose) (HPC), higher T/C = longer survival",0 of 8
same,survivor count,"T/C endpoint: median survival time, dose: 53.8 mg/kg/injection, schedule: Q01DX001 (ip), vehicle: Klucel (hydroxypropylcellulose) (HPC), higher T/C = longer survival",3 of 10 on day 47
same,survivor count,"T/C endpoint: median survival time, dose: 60.0 mg/kg/injection, schedule: Q03HX004 (ip), vehicle: Klucel (hydroxypropylcellulose) (HPC), higher T/C = longer survival",2 of 8
same,survivor count,"T/C endpoint: median survival time, dose: 80.0 mg/kg/injection, schedule: Q01DX001 (ip), vehicle: Klucel (hydroxypropylcellulose) (HPC), higher T/C = longer survival",1 of 10 on day 47
same,survivor count,"T/C endpoint: median survival time, dose: 120.0 mg/kg/injection, schedule: Q01DX001 (ip), vehicle: Klucel (hydroxypropylcellulose) (HPC), higher T/C = longer survival",1 of 10 on day 47 and 5 of 8
same,survivor count,"T/C endpoint: median survival time, dose: 180.0 mg/kg/injection, schedule: Q01DX001 (ip), vehicle: Klucel (hydroxypropylcellulose) (HPC), higher T/C = longer survival",0 of 10 on day 47
same,survivor count,"T/C endpoint: median survival time, dose: 240.0 mg/kg/injection, schedule: Q01DX001 (ip), vehicle: Klucel (hydroxypropylcellulose) (HPC), higher T/C = longer survival",0 of 8
same,T/C,"T/C endpoint: median tumor weight (est.), dose: 0.63 mg/kg/injection, schedule: Q01HX012 (ip), vehicle: Klucel (hydroxypropylcellulose) (HPC), evaluated on day 14, higher T/C = larger tumour",127 % of control
same,survivor count,"T/C endpoint: median tumor weight (est.), dose: 10.0 mg/kg/injection, schedule: Q01HX012 (ip), vehicle: Klucel (hydroxypropylcellulose) (HPC), higher T/C = larger tumour",3 of 8 on day 14
same,survivor count,"T/C endpoint: median tumor weight (est.), dose: 20.0 mg/kg/injection, schedule: Q01HX012 (ip), vehicle: Klucel (hydroxypropylcellulose) (HPC), higher T/C = larger tumour",0 of 8 on day 14
same,survivor count,"T/C endpoint: median tumor weight (est.), dose: 20.0 mg/kg/injection, schedule: Q02HX006 (ip), vehicle: Klucel (hydroxypropylcellulose) (HPC), higher T/C = larger tumour",5 of 8 on day 14
same,survivor count,"T/C endpoint: median tumor weight (est.), dose: 40.0 mg/kg/injection, schedule: Q02HX006 (ip), vehicle: Klucel (hydroxypropylcellulose) (HPC), higher T/C = larger tumour",0 of 8 on day 14
same,survivor count,"T/C endpoint: median tumor weight (est.), dose: 60.0 mg/kg/injection, schedule: Q03HX004 (ip), vehicle: Klucel (hydroxypropylcellulose) (HPC), higher T/C = larger tumour",0 of 8 on day 14
same,survivor count,"T/C endpoint: median tumor weight (est.), dose: 120.0 mg/kg/injection, schedule: Q01DX001 (ip), vehicle: Klucel (hydroxypropylcellulose) (HPC), higher T/C = larger tumour",4 of 8 on day 14
same,survivor count,"T/C endpoint: median tumor weight (est.), dose: 240.0 mg/kg/injection, schedule: Q01DX001 (ip), vehicle: Klucel (hydroxypropylcellulose) (HPC), higher T/C = larger tumour",0 of 8 on day 14
COC(=O)C[C@](O)(CCCC(C)(C)O)C(=O)O[C@@H]1C(OC)=C[C@]23CCCN2CCc2cc4c(cc2[C@H]13)OCO4,survivor count,"T/C endpoint: median survival time, dose: 0.12 mg/kg/injection, schedule: Q01DX009 (ip), vehicle: acid diluted with saline, higher T/C = longer survival",9 of 10
same,T/C,"T/C endpoint: median survival time, dose: 1.0 mg/kg/injection, schedule: Q01DX009 (ip), vehicle: acid diluted with saline, higher T/C = longer survival",132 % of control
same,T/C,"T/C endpoint: median survival time, dose: 2.0 mg/kg/injection, schedule: Q01DX009 (ip), vehicle: acid diluted with saline, higher T/C = longer survival",137 % of control
same,survivor count,"T/C endpoint: median survival time, dose: 2.3 mg/kg/injection, schedule: Q01DX009 (ip), vehicle: acid diluted with saline, higher T/C = longer survival",9 of 10
same,survivor count,"T/C endpoint: median survival time, dose: 4.0 mg/kg/injection, schedule: Q01DX009 (ip), vehicle: acid diluted with saline, higher T/C = longer survival",5 of 10
Nc1c(Cl)c(Cl)nc(C(=O)O)c1Cl,survivor count,"T/C endpoint: median survival time, dose: 12.5 mg/kg/injection, schedule: Q02DX009 (ip), vehicle: Klucel (hydroxypropylcellulose) (HPC), higher T/C = longer survival",10 of 10
same,T/C,[1],141 % of control
same,survivor count,[1],10 of 10
same,survivor count,"T/C endpoint: median survival time, dose: 400.0 mg/kg/injection, schedule: Q02DX009 (ip), vehicle: Klucel (hydroxypropylcellulose) (HPC), higher T/C = longer survival",3 of 10
COc1cccc2c1C(=O)c1c(O)c3c(c(O)c1C2=O)C[C@@](O)(C(=O)COC(=O)Cc1ccccc1)C[C@@H]3OC1CC(N)C(O)C(C)O1 (some centres undefined),survivor count,"T/C endpoint: median survival time, dose: 4.0 mg/kg/injection, schedule: Q01DX009 (ip), vehicle: saline with Tween-80, higher T/C = longer survival",10 of 10
same,survivor count,"T/C endpoint: median survival time, dose: 8.0 mg/kg/injection, schedule: Q01DX009 (ip), vehicle: saline with Tween-80, higher T/C = longer survival",10 of 10
same,survivor count,"T/C endpoint: median survival time, dose: 16.0 mg/kg/injection, schedule: Q01DX009 (ip), vehicle: saline with Tween-80, higher T/C = longer survival",6 of 10
CC(=O)O[C@H]1C(=O)[C@@]2(C)[C@H]([C@H](OC(=O)c3ccccc3)[C@]3(O)C[C@H](OC(=O)[C@H](O)[C@@H](NC(=O)c4ccccc4)c4ccccc4)C(C)=C1C3(C)C)[C@]1(OC(C)=O)CO[C@@H]1C[C@@H]2O,T/C,"T/C endpoint: median survival time, dose: 4.44 mg/kg/injection, schedule: Q01DX009 (ip), vehicle: Klucel (hydroxypropylcellulose) (HPC), higher T/C = longer survival",126 % of control
same,survivor count,"T/C endpoint: median survival time, dose: 6.67 mg/kg/injection, schedule: Q01DX009 (ip), vehicle: other, higher T/C = longer survival",10 of 10
same,survivor count,"T/C endpoint: median survival time, dose: 10.0 mg/kg/injection, schedule: Q01DX009 (ip), vehicle: Klucel (hydroxypropylcellulose) (HPC), higher T/C = longer survival",10 of 10
same,survivor count,"T/C endpoint: median survival time, dose: 10.0 mg/kg/injection, schedule: Q01DX009 (ip), vehicle: other, higher T/C = longer survival",10 of 10
same,survivor count,"T/C endpoint: median survival time, dose: 15.0 mg/kg/injection, schedule: Q01DX009 (ip), vehicle: Klucel (hydroxypropylcellulose) (HPC), higher T/C = longer survival",10 of 10
same,survivor count,"T/C endpoint: median survival time, dose: 15.0 mg/kg/injection, schedule: Q01DX009 (ip), vehicle: other, higher T/C = longer survival",10 of 10
same,survivor count,"T/C endpoint: median survival time, dose: 22.5 mg/kg/injection, schedule: Q01DX009 (ip), vehicle: Klucel (hydroxypropylcellulose) (HPC), higher T/C = longer survival",10 of 10
same,survivor count,"T/C endpoint: median survival time, dose: 22.5 mg/kg/injection, schedule: Q01DX009 (ip), vehicle: other, higher T/C = longer survival",10 of 10
COc1cc2c(c(OC)c1OC)-c1ccc(OC)c(=O)cc1[C@@H](NC(C)=O)CC2,survivor count,"T/C endpoint: median survival time, dose: 1000.0 micrograms/kg/injection, schedule: Q01DX009 (ip), vehicle: saline, higher T/C = longer survival",10 of 10
O=C1C(=O)c2ccccc2C(O)=C1CC=C(Cl)Cl,T/C,"T/C endpoint: median survival time, dose: 12.5 mg/kg/injection, schedule: Q01DX009 (ip), vehicle: Klucel (hydroxypropylcellulose) (HPC), higher T/C = longer survival","104, 104 [5 of 6 alive], 110, 115, 137, 140 % of control"
same,T/C,[2],"98, 104 (2×), 126, 145 % of control"
same,survivor count,[2],5 of 6
same,T/C,[3],"104, 112, 124, 136 % of control [5 of 6 alive]"
same,survivor count,[3],1 of 6 and 5 of 6
same,T/C,[4],96 % of control [5 of 6 alive]
same,survivor count,[4],"0 of 6, 1 of 6, 2 of 6, 6 of 6"
same,survivor count,"T/C endpoint: median tumor weight (est.), dose: 100.0 mg/kg/injection, schedule: Q01DX009 (ip), vehicle: Klucel (hydroxypropylcellulose) (HPC), higher T/C = larger tumour",1 of 6 and 3 of 6
O=C1c2c(O)ccc(O)c2C(=O)c2c(NCCNCCO)ccc(NCCNCCO)c21,T/C,"T/C endpoint: median survival time, dose: 0.5 mg/kg/injection, schedule: Q01DX009 (ip), vehicle: saline with Tween-80, higher T/C = longer survival",128 and 139 % of control
same,T/C,"T/C endpoint: median survival time, dose: 2.0 mg/kg/injection, schedule: Q01DX009 (ip), vehicle: saline with Tween-80, higher T/C = longer survival",133 % of control
same,survivor count,"T/C endpoint: median survival time, dose: 4.0 mg/kg/injection, schedule: Q01DX009 (ip), vehicle: other, higher T/C = longer survival",10 of 10
same,survivor count,"T/C endpoint: median survival time, dose: 8.0 mg/kg/injection, schedule: Q01DX009 (ip), vehicle: other, higher T/C = longer survival",10 of 10
